Experimental data: PubChem BioAssay AID1224828 (NIAID, 2016)
Aim: 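Find genes required for NF-kappaB p65 moving into the nucleus after LPS in mouse macrophages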 (primary screen). Cells: mouse RAW264.7 G9 macrophage reporter cells (GFP-p65, Tnf promoter-mCherry). Knock-down reagent: siRNA pool against mouse genes, 100 nM. Time to read-out: 2 days siRNA transfection, then 40 min LPS before fixation. Conditions: LPS (Salmonella minnesota R595) at 10 ng/ml. Measurement: 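Microscopy ratio of nuclear to perinuclear-ring GFP-p65 signal, scaled to the plate median; gene score is the average of two replicate robust z-scores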. Reading the numbers: p65 translocation robust z-score: higher = more nuclear NF-kappaB p65 after LPS than the plate median; nuclear/cytoplasmic p65 ratio: higher = more nuclear NF-kappaB p65. Hit rule: 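Called active when z exceeds 3.3 or falls under -1.56 (median of Tlr4 controls), giving activity score of at least 50; no calls for control wells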. Calls: active = hit (p65 shift raised or lowered); inactive = no clear change.
Shown is an unselected part of about 17,000 deposited reagents. Of all reagents, 762 (4.5%) got an active call. 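Active calls include both raised and lowered p65 entry, mostly lowered; wells with fewer than 50 cells lack a z-score.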 Raw values vary from plate to plate and are shown uncorrected. Reagents against one gene are numbered here. A reagent listed more than once was tested more than once; the source does not tell the runs apart. Reagent sequences are not shown.

| target gene | pool no. | p65 translocation robust z-score | nuclear/cytoplasmic p65 ratio, rep 1 | nuclear/cytoplasmic p65 ratio, rep 2 | low cell count flag | Call |
| --- | --- | --- | --- | --- | --- | --- |
| Pold1 (polymerase (DNA directed), delta 1, catalytic subunit) | 1 | -0.85 | 1.7 | 1.3 | enough cells to score | inactive |
| Aplp2 (amyloid beta precursor-like protein 2) | 1 | -1.49 | 1.41 | 1.38 | enough cells to score | inactive |
| Or5an1c (olfactory receptor family 5 subfamily AN member 1C) | 1 | – | 1.5 | 1.3 | fewer than 50 cells per well; well left out of scoring | inactive |
| Or2y1d (olfactory receptor family 2 subfamily Y member 1D) | 1 | -1.6 | 1.45 | 1.14 | enough cells to score | active |
| Smr2 (submaxillary gland androgen regulated protein 2) | 1 | -0.58 | 1.4 | 1.17 | enough cells to score | inactive |
| Ndufa1 (NADH:ubiquinone oxidoreductase subunit A1) | 1 | -2 | 1.42 | 1.33 | enough cells to score | active |
| Pnma1 (paraneoplastic antigen MA1) | 1 | 0.64 | 1.48 | 1.59 | enough cells to score | inactive |
| Psd4 (pleckstrin and Sec7 domain containing 4) | 1 | 0.68 | 1.66 | 1.77 | enough cells to score | inactive |
| Adra1a (adrenergic receptor, alpha 1a) | 1 | -1.81 | 1.46 | 1.11 | enough cells to score | active |
| Adra1a (adrenergic receptor, alpha 1a) | 1 | -0.54 | 1.43 | 1.5 | enough cells to score | inactive |
| Mapre3 (microtubule-associated protein, RP/EB family, member 3) | 1 | -1.44 | 1.23 | 1.18 | enough cells to score | inactive |
| Clec7a (C-type lectin domain family 7, member a) | 1 | -1.07 | 1.46 | 1.59 | enough cells to score | inactive |
| Rhox2a (reproductive homeobox 2A) | 1 | – | 1.19 | 1.4 | fewer than 50 cells per well; well left out of scoring | inactive |
| Or7a41 (olfactory receptor family 7 subfamily A member 41) | 1 | – | 1.04 | 1.07 | fewer than 50 cells per well; well left out of scoring | inactive |
| Clec2d (C-type lectin domain family 2, member d) | 1 | -0.04 | 1.8 | 1.44 | enough cells to score | inactive |
| 6820408C15Rik (RIKEN cDNA 6820408C15 gene) | 1 | 1.37 | 1.69 | 1.66 | enough cells to score | inactive |
| Iyd (iodotyrosine deiodinase) | 1 | -0.03 | 1.52 | 1.46 | enough cells to score | inactive |
| Trmt2b (TRM2 tRNA methyltransferase 2B) | 1 | – | 1.16 | 1.27 | fewer than 50 cells per well; well left out of scoring | inactive |
| Krt14 (keratin 14) | 1 | 0.15 | 1.54 | 1.36 | enough cells to score | inactive |
| Actr3 (ARP3 actin-related protein 3) | 1 | -1.23 | 1.42 | 1.45 | enough cells to score | inactive |
| Atg5 (autophagy related 5) | 1 | -0.09 | 1.65 | 1.56 | enough cells to score | inactive |
| Hspa12a (heat shock protein family A (Hsp70) member 12A) | 1 | 1.04 | 1.59 | 1.67 | enough cells to score | inactive |
| Pitx2 (paired-like homeodomain transcription factor 2) | 1 | -0.44 | 1.48 | 1.31 | enough cells to score | inactive |
| Abcf2 (ATP-binding cassette, sub-family F member 2) | 1 | 1.62 | 1.85 | 1.93 | enough cells to score | inactive |
| Cdadc1 (cytidine and dCMP deaminase domain containing 1) | 1 | – | 1.8 | 1.36 | fewer than 50 cells per well; well left out of scoring | inactive |
| Gnai3 (G protein subunit alpha i3) | 1 | 0.52 | 1.54 | 1.7 | enough cells to score | inactive |
| Ppp1r3c (protein phosphatase 1, regulatory subunit 3C) | 1 | 1.01 | 1.67 | 1.51 | enough cells to score | inactive |
| Ubxn11 (UBX domain protein 11) | 1 | -0.42 | 1.45 | 1.55 | enough cells to score | inactive |
| Serpinb11 | 1 | – | 1.27 | 1.42 | fewer than 50 cells per well; well left out of scoring | inactive |
| Kmo (kynurenine 3-monooxygenase) | 1 | 0.42 | 1.8 | 1.32 | enough cells to score | inactive |
| Cdk8 (cyclin dependent kinase 8) | 1 | 0.8 | 1.84 | 1.47 | enough cells to score | inactive |
| Tyw1 (tRNA-yW synthesizing protein 1 homolog (S. cerevisiae)) | 1 | 0.33 | 1.64 | 1.57 | enough cells to score | inactive |
| Mlec (malectin) | 1 | 0.33 | 1.36 | 1.59 | enough cells to score | inactive |
| Rnf141 (ring finger protein 141) | 1 | 0.73 | 1.51 | 1.31 | enough cells to score | inactive |
| Gpr146 (G protein-coupled receptor 146) | 1 | – | 1.5 | 1.76 | fewer than 50 cells per well; well left out of scoring | inactive |
| Gpr146 (G protein-coupled receptor 146) | 2 | -1.32 | 1.3 | 1.43 | enough cells to score | inactive |
| Krtap13-1 (keratin associated protein 13-1) | 1 | -0.65 | 1.32 | 1.41 | enough cells to score | inactive |
| Esrrg (estrogen-related receptor gamma) | 1 | -1.6 | 1.19 | 1.22 | enough cells to score | active |
| Vmn1r228 (vomeronasal 1 receptor 228) | 1 | – | 1.15 | 1.16 | fewer than 50 cells per well; well left out of scoring | inactive |
| Ttf1 (transcription termination factor, RNA polymerase I) | 1 | -0.35 | 1.5 | 1.42 | enough cells to score | inactive |
| Cib2 (calcium and integrin binding family member 2) | 1 | -0.82 | 1.3 | 1.32 | enough cells to score | inactive |
| Or9i14 (olfactory receptor family 9 subfamily I member 14) | 1 | -0.78 | 1.44 | 1.36 | enough cells to score | inactive |
| Art2b (ADP-ribosyltransferase 2b) | 1 | 0.6 | 1.6 | 1.69 | enough cells to score | inactive |
| Pomt1 (protein-O-mannosyltransferase 1) | 1 | -0.16 | 1.51 | 1.36 | enough cells to score | inactive |
| Dcaf13 (DDB1 and CUL4 associated factor 13) | 1 | 0.25 | 1.8 | 1.47 | enough cells to score | inactive |
| Cep57 (centrosomal protein 57) | 1 | – | 1.16 | 1.45 | fewer than 50 cells per well; well left out of scoring | inactive |
| Tmc2 (transmembrane channel-like gene family 2) | 1 | -2.32 | 1.07 | 1.11 | enough cells to score | active |
| Tmem178 (transmembrane protein 178) | 1 | – | 1.49 | 1.57 | fewer than 50 cells per well; well left out of scoring | inactive |
| Vim (vimentin) | 1 | 0.2 | 1.57 | 1.5 | enough cells to score | inactive |
| Abhd16b (abhydrolase domain containing 16B) | 1 | – | 1.19 | 1.14 | fewer than 50 cells per well; well left out of scoring | inactive |
| Copb1 (coatomer protein complex, subunit beta 1) | 1 | – | 1.04 | 1.66 | fewer than 50 cells per well; well left out of scoring | inactive |
| Nkx2-9 (NK2 homeobox 9) | 1 | 0.95 | 1.88 | 1.65 | enough cells to score | inactive |
| Zfp93 (zinc finger protein 93) | 1 | 1.38 | 1.6 | 1.33 | enough cells to score | inactive |
| Lrrc42 (leucine rich repeat containing 42) | 1 | 0 | 1.46 | 1.44 | enough cells to score | inactive |
| Nudt9 (nudix hydrolase 9) | 1 | 0.68 | 1.88 | 1.58 | enough cells to score | inactive |
| Vmn1r233 (vomeronasal 1 receptor 233) | 1 | 1.42 | 1.69 | 1.82 | enough cells to score | inactive |
| Pglyrp2 (peptidoglycan recognition protein 2) | 1 | -0.12 | 1.36 | 1.28 | enough cells to score | inactive |
| Trps1 (transcriptional repressor GATA binding 1) | 1 | -1.08 | 1.35 | 1.36 | enough cells to score | inactive |
| Srrm2 (serine/arginine repetitive matrix 2) | 1 | -0.72 | 1.43 | 1.46 | enough cells to score | inactive |
